Taken from: PubChem BioAssay AID743121 (NCATS, 2013)
Assay: 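Knock-downs that sensitise breast cancer cells to camptothecin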 (primary screen). System: MDA-MB-231 cells, a human breast cancer line. Knock-down reagent: single siRNA against human genes, 20 nM siRNA (0.8 pmol per well). Timing: 120 h (drug added 48 h after transfection, read 72 h later). Treatment: camptothecin 20 nM (about EC30) for 72 h; vehicle 0.1% DMSO in parallel plates. Detection: 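CellTiter-Glo ATP signal, scaled to control siRNA as percent viability; sensitisation given as log2 of untreated divided by camptothecin-treated viability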. Scale: log2 vehicle/camptothecin viability: higher = stronger sensitisation to camptothecin; viability with camptothecin: higher = more viable cells. Hit rule: 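Each gene scored by redundant siRNA activity (RSA) over its individual siRNA ratios; a gene is called active at p < 0.001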.
The whole screen tested about 26,000 reagents; shown is a random part of them. 167 of them (0.63%) were called active. 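Calls are per gene from RSA p-values that are not deposited; an individual active-marked siRNA can sensitise only weakly.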 A number with no mark means an inactive call. Reagents against one gene are numbered here. Further read-outs or replicates are left out here.

Target gene	reagent	log2 vehicle/camptothecin viability	viability with camptothecin (% of control)
IL1RAPL2 (interleukin 1 receptor accessory protein like 2)	1	-0.262	94.9
IL1RAPL2 (interleukin 1 receptor accessory protein like 2)	2	-0.0887	87.7
IL1RAPL2 (interleukin 1 receptor accessory protein like 2)	3	-0.154	93.9
IL1RAPL2 (interleukin 1 receptor accessory protein like 2)	4	-0.058	66.9
OR2H1 (olfactory receptor family 2 subfamily H member 1)	1	-0.149	83.1
OR2H1 (olfactory receptor family 2 subfamily H member 1)	2	0.322	54.7
OR2H1 (olfactory receptor family 2 subfamily H member 1)	3	0.0347	98.8
OR2H1 (olfactory receptor family 2 subfamily H member 1)	4	0.181	68.9
ZNF845 (zinc finger protein 845)	1	-0.286	75.6
ZNF845 (zinc finger protein 845)	2	-0.32	73.7
ZNF845 (zinc finger protein 845)	3	-0.231	120
ZNF845 (zinc finger protein 845)	4	-0.044	84.3
ZNF845 (zinc finger protein 845)	5	-0.387	68.4
ZNF845 (zinc finger protein 845)	6	-0.177	78.6
ZNF845 (zinc finger protein 845)	7	0.0613	95.6
ZNF845 (zinc finger protein 845)	8	-0.13	58.2
ATP6AP2 (ATPase H+ transporting accessory protein 2)	1	-0.447	82.2
ATP6AP2 (ATPase H+ transporting accessory protein 2)	2	-0.131	34.6
ATP6AP2 (ATPase H+ transporting accessory protein 2)	3	-0.0192	96.7
ATP6AP2 (ATPase H+ transporting accessory protein 2)	4	-0.217	86.6
CXCL2 (C-X-C motif chemokine ligand 2)	1	-0.301	106
CXCL2 (C-X-C motif chemokine ligand 2)	2	-0.0417	106
CXCL2 (C-X-C motif chemokine ligand 2)	3	-0.093	119
CXCL2 (C-X-C motif chemokine ligand 2)	4	-0.194	107
SDC2 (syndecan 2)	1	-0.236	75.6
SDC2 (syndecan 2)	2	-0.154	92
SDC2 (syndecan 2)	3	0.0452	91.6
VN1R5 (vomeronasal 1 receptor 5 (gene/pseudogene))	1	-0.753	79.7
VN1R5 (vomeronasal 1 receptor 5 (gene/pseudogene))	2	-0.0939	45
VN1R5 (vomeronasal 1 receptor 5 (gene/pseudogene))	3	0.335	70.3
VN1R5 (vomeronasal 1 receptor 5 (gene/pseudogene))	4	0.522	66.3
CD82 (CD82 molecule)	1	-0.107	57.2
CD82 (CD82 molecule)	2	-0.297	42.6
CD82 (CD82 molecule)	3	0.941	10.6
GPR87 (G protein-coupled receptor 87)	1	-0.313	83.9
GPR87 (G protein-coupled receptor 87)	2	-0.25	59.2
GPR87 (G protein-coupled receptor 87)	3	-0.0753	83.6
MAGED1 (MAGE family member D1)	1	-0.49	91.5
MAGED1 (MAGE family member D1)	2	-0.22	95.3
MAGED1 (MAGE family member D1)	3	0.00747	85.5
MAGED1 (MAGE family member D1)	4	-0.0688	46.8
LTB (lymphotoxin beta)	1	-0.35	69.2
LTB (lymphotoxin beta)	2	0.373	66.1
LTB (lymphotoxin beta)	3	-0.443	81
LTB (lymphotoxin beta)	4	-0.0329	54.3
BTN3A3 (butyrophilin subfamily 3 member A3)	1	-0.0806	93
BTN3A3 (butyrophilin subfamily 3 member A3)	2	0.0369	84.9
BTN3A3 (butyrophilin subfamily 3 member A3)	3	-0.16	91.2
BTN3A3 (butyrophilin subfamily 3 member A3)	4	0.155	93.6
NLN (neurolysin)	1	-0.099	105
NLN (neurolysin)	2	-0.0946	99
NLN (neurolysin)	3	-0.172	61.1
NLN (neurolysin)	4	0.478	18.7
RGL2 (ral guanine nucleotide dissociation stimulator like 2)	1	-0.0679	124
RGL2 (ral guanine nucleotide dissociation stimulator like 2)	2	-0.325	80.6
RGL2 (ral guanine nucleotide dissociation stimulator like 2)	3	-0.118	57.3
RGL2 (ral guanine nucleotide dissociation stimulator like 2)	4	0.299	49.1
POLN (DNA polymerase nu)	1	-0.239	82.5
POLN (DNA polymerase nu)	2	-0.126	74
POLN (DNA polymerase nu)	3	-0.168	111
POLN (DNA polymerase nu)	4	-0.316	71.8
TSSK2 (testis specific serine kinase 2)	1	0.122	63.1
TSSK2 (testis specific serine kinase 2)	2	-0.214	86
TSSK2 (testis specific serine kinase 2)	3	-0.126	106
TSSK2 (testis specific serine kinase 2)	4	-0.245	110
RAB20 (RAB20, member RAS oncogene family)	1	0.293	44.9
RAB20 (RAB20, member RAS oncogene family)	2	-0.223	86.9
RAB20 (RAB20, member RAS oncogene family)	3	0.554	68.1

Laid out differently: entries from further up
{"Target gene":"POLN (DNA polymerase nu)","reagent":4,"log2 vehicle/camptothecin viability":-0.316,"viability with camptothecin (% of control)":71.8}
{"Target gene":"TSSK2 (testis specific serine kinase 2)","reagent":1,"log2 vehicle/camptothecin viability":0.122,"viability with camptothecin (% of control)":63.1}
{"Target gene":"TSSK2 (testis specific serine kinase 2)","reagent":2,"log2 vehicle/camptothecin viability":-0.214,"viability with camptothecin (% of control)":86}
{"Target gene":"TSSK2 (testis specific serine kinase 2)","reagent":3,"log2 vehicle/camptothecin viability":-0.126,"viability with camptothecin (% of control)":106}
{"Target gene":"TSSK2 (testis specific serine kinase 2)","reagent":4,"log2 vehicle/camptothecin viability":-0.245,"viability with camptothecin (% of control)":110}
